Measured values: publication PMC3776769
These are yes or no findings as the source states them, for the method shown. Binding seen in cells or lysates may run through a third protein. Some entries that bind do so weakly or less than the wild type. Sequences can lack the tags named with a protein.

T1: FLAG-fused FKBP11 (FKBP11-FLAG) (UniProt Q9D1M7)
T1 sequence: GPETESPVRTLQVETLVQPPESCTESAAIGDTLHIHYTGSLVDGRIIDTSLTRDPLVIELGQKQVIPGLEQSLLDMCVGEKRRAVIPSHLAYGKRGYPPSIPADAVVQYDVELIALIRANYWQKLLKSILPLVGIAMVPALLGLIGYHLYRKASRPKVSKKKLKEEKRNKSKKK


The binders below were run against T1, FLAG-fused FKBP11 (FKBP11-FLAG) (assay: co-IP; lysate of MC3T3 osteoblast cells co-expressing IFITM5 and FKBP11-FLAG, grown without 2BP; anti-FLAG M2 agarose, 4 C, 2 h; eluted with 3xFLAG peptide; blot with anti-IFITM5 and anti-FLAG).

binding | Binder
binds | wild-type IFITM5 (IFITM5-WT), S-palmitoylated form (protein, UniProt O88728 1-134, S-palmitoylated at Cys86 plus Cys52 and/or Cys53 (fully palmitoylated)) MDTSYPREDPRAPSSRKADAAAHTALSMGTPGPTPRDHMLWSVFSTMYLNLCCLGFLALVHSVKARDQKMAGNLEAARQYGSKAKCYNILAAMWTLVPPLLLLGLVVTGALHLSKLAKDSAAFFSTKFDEEDYN
binds | IFITM5-C86A (protein, UniProt O88728 1-134, partially palmitoylated at Cys52 and/or Cys53) MDTSYPREDPRAPSSRKADAAAHTALSMGTPGPTPRDHMLWSVFSTMYLNLCCLGFLALVHSVKARDQKMAGNLEAARQYGSKAKAYNILAAMWTLVPPLLLLGLVVTGALHLSKLAKDSAAFFSTKFDEEDYN
no binding | IFITM5-C52A/C53A (protein, UniProt O88728 1-134, partially palmitoylated at Cys86) MDTSYPREDPRAPSSRKADAAAHTALSMGTPGPTPRDHMLWSVFSTMYLNLAALGFLALVHSVKARDQKMAGNLEAARQYGSKAKCYNILAAMWTLVPPLLLLGLVVTGALHLSKLAKDSAAFFSTKFDEEDYN
no binding | IFITM5-C52A/C53A/C86A (Cys-less) (protein, UniProt O88728 1-134) MDTSYPREDPRAPSSRKADAAAHTALSMGTPGPTPRDHMLWSVFSTMYLNLAALGFLALVHSVKARDQKMAGNLEAARQYGSKAKAYNILAAMWTLVPPLLLLGLVVTGALHLSKLAKDSAAFFSTKFDEEDYN
